Test results from paper doi:10.1101/2023.09.29.560113.

Columns and labels:
[1] = target: T1, NET4A-Cub (Arabidopsis thaliana) (UniProt F4KEW8); assay: two-hybrid
T1 sequence: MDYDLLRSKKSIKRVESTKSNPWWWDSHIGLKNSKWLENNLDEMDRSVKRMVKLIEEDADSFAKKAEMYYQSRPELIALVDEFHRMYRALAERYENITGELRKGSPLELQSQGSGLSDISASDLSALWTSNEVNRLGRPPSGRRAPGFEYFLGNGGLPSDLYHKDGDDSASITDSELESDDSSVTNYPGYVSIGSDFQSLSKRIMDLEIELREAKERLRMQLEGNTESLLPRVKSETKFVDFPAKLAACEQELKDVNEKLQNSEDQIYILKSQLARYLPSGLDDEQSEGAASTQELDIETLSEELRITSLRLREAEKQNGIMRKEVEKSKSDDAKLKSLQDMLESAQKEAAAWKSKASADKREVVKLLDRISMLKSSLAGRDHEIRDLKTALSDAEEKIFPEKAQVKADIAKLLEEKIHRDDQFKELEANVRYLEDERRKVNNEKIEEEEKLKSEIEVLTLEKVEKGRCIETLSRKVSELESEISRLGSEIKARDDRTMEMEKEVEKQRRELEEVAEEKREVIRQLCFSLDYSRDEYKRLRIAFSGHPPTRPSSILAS

[2] = target: T2, NET4A, rBiFC fusion (Arabidopsis thaliana) (UniProt F4KEW8); assay: split reporter
T2 sequence: T1 sequence

Row | Substance | binding [1] | binding [2]
1 | At2g15042, mbSUS fusion (Arabidopsis thaliana) | no binding | 
2 | At2g15042, rBiFC fusion (Arabidopsis thaliana) |  | no binding
3 | At4g01245, mbSUS fusion (Arabidopsis thaliana) | binds | 
4 | At4g01245, rBiFC fusion (Arabidopsis thaliana) |  | binds

Results are given in words; binding and its absence hold for the method and conditions named. Binding calls can cover weak binding; strength is not graded here. For some of these results: In cells and extracts the contact can be indirect. For some of these results: Sequences can lack the tags named with a protein.
